# Assay results taken from the supplement of paper PMC8732350.
# “And” between values parts separate entries of the source, which are not always exact repeats. Equal values may be shown once. Where a name gives a salt, the structure may show the parent alone. ± gives the standard deviation of the averaged measurements. The list shows a part of the results. This data set is noisy: repeats of one test often differ as much as different tests do.
# System: A549
# Assay: surface PD-L1 immunofluorescence intensity relative to IFN-gamma-only control (ratio); higher = more PD-L1 expression
# Settings: 10 µM; exposure time 24 h; IFN-gamma 100 ng/mL
row,Structure (SMILES),surface PD-L1 immunofluorescence intensity
1,C=CC[N@@+]12CC[C@@]34c5ccccc5N5/C=C6/[C@H]7C[C@H]8[C@@]9(CC[N@@+]8(CC=C)C/C7=C/CO)c7ccccc7N(/C=C(/[C@@H](C[C@@H]31)/C(=C\CO)C2)[C@H]54)[C@@H]69 [Alcuronium chloride],1.18
2,O=S(=O)(O)CCSSCCS(=O)(=O)O [Dimesna],0.993
3,CCCC(C(=O)OCCN(CC)CC)(c1ccccc1)c1ccccc1 [Proadifen hydrochloride],1.04
4,NC[C@H]1CC[C@H](C(=O)O)CC1 [Tranexamic acid],0.953
5,C=CCc1ccccc1OCC(O)CNC(C)C (stereo not drawn) [Alprenolol hydrochloride],0.897
6,CC(=O)OC(C)C[N+](C)(C)C (stereo not drawn) [Methacholine chloride],0.98
7,CCCCOc1ccc(CC(=O)NO)cc1 [Bufexamac],0.844
8,CCCCC[C@H](CC(=O)NO)C(=O)N[C@H](C(=O)N1CCC[C@H]1CO)C(C)C [Actinonin],0.875
9,Cc1ccc(O)c([C@H](CCN(C(C)C)C(C)C)c2ccccc2)c1 [Tolterodine tartrate (Detrol LA)],0.824
10,CCN1/C(=C/C(C)=O)Sc2ccc(OC)cc21,0.962
11,C/N=C(/NC#N)NCCSCc1csc(NC(=N)N)n1 [Tiotidine],0.843
12,Cc1c(CC(C)(C)C(=O)O)n(Cc2ccc(Cl)cc2)c2ccc(F)cc12,1.02
13,CS(=O)(=O)c1ccc(Cn2c3c(c4cc(F)cc(F)c42)CCCC3CC(=O)O)cc1 (stereo not drawn),0.913
14,O=C(O)c1cc(=O)c2c(OCC(O)COc3cccc4oc(C(=O)O)cc(=O)c34)cccc2o1 [Cromolyn disodium salt],0.966
15,CCOc1ccc(Cc2cc([C@@H]3O[C@H](CO)[C@@H](O)[C@H](O)[C@H]3O)ccc2Cl)cc1 [Dapagliflozin],1.04
16,CCCCCCCCCC(=O)N[C@@H](CCCN=C(N)N)C(=O)N[C@H](C(=O)N[C@@H](CCCCN)C(=O)N[C@@H](CCCN=C(N)N)C(=O)CCl)C(C)C,0.905
17,O=c1cc(CN2CCOCC2)occ1OCCCCCSc1ccnc2cc(C(F)(F)F)ccc12,0.978
18,O=[N+]([O-])c1cc(Cl)ccc1S(=O)(=O)N1CCN(Cc2ccccc2)CC1,0.976
19,CSCCC(C=O)NC(=O)C(CC(C)C)NC(=O)[C@H](CC(C)C)NC(C)=O (stereo partly drawn) [Calpain Inhibitor II (ALLM)],0.868
20,CCCCc1nn(-c2ccccc2C(F)(F)F)c(=O)n1Cc1ccc(-c2ccccc2S(=O)(=O)NC(=O)c2sccc2C)cc1,1.04
21,CN(C)CCC(c1ccccc1)c1ccccn1 (stereo not drawn) [Pheniramine maleate],0.877
22,CCOc1nc2cccc(C(=O)OC(C)OC(=O)OC3CCCCC3)c2n1Cc1ccc(-c2ccccc2-c2nn[nH]n2)cc1 (stereo not drawn) [Candesartan cilexetil (Atacand)],1.07
23,Clc1ccc(-c2nc3sccn3c2/C=N/OCc2ccc(Cl)c(Cl)c2)cc1,1.03 ± 0.013
24,CCN1CCC[C@H]1CNC(=O)c1cc(S(N)(=O)=O)ccc1OC [Levosulpiride (Levogastrol)],1.04
25,Nc1ccc(S(N)(=O)=O)cc1 [Sulfanilamide],1.03
26,COc1cc2ncnc(Nc3ccc(Oc4ccccc4)cc3)c2cc1OC,0.96

# A different layout for five compounds above.
row	Structure (SMILES)	surface PD-L1 immunofluorescence intensity
11	C/N=C(/NC#N)NCCSCc1csc(NC(=N)N)n1 [Tiotidine]	0.843
12	Cc1c(CC(C)(C)C(=O)O)n(Cc2ccc(Cl)cc2)c2ccc(F)cc12	1.02
13	CS(=O)(=O)c1ccc(Cn2c3c(c4cc(F)cc(F)c42)CCCC3CC(=O)O)cc1 (stereo not drawn)	0.913
14	O=C(O)c1cc(=O)c2c(OCC(O)COc3cccc4oc(C(=O)O)cc(=O)c34)cccc2o1 [Cromolyn disodium salt]	0.966
15	CCOc1ccc(Cc2cc([C@@H]3O[C@H](CO)[C@@H](O)[C@H](O)[C@H]3O)ccc2Cl)cc1 [Dapagliflozin]	1.04

# Next part:

row,Structure (SMILES),surface PD-L1 immunofluorescence intensity
1,CC1CCN(CCCC(=O)c2ccc(F)cc2)CC1 [Melperone hydrochloride],0.984
2,CC1=C(C(=O)OCCN(Cc2ccccc2)c2ccccc2)C(c2cccc([N+](=O)[O-])c2)C(P2(=O)OCC(C)(C)CO2)=C(C)N1 (stereo not drawn) [Efonidipine hydrochloride monoethanolate],1.02
3,"C1CCC2(CC1)CCNCC2 [4,4-Pentamethylenepiperidine hydrochloride]",1
4,CCCNS(=O)(=O)Nc1ncnc(OCCOc2ncc(Br)cn2)c1-c1ccc(Br)cc1 [Macitentan],1.1
5,CC(CCc1ccc(O)cc1)NCCc1ccc(O)c(O)c1 (stereo not drawn) [Dobutamine hydrochloride],1.09 ± 0.082
6,CC(O)(C(=O)Nc1ccc(S(=O)(=O)c2ccccc2)cc1)C(F)(F)F (stereo not drawn),0.98 and 0.885
7,CSc1ccc(/C=C2/C(C)=C(CC(=O)O)c3cc(F)ccc32)cc1 [Sulindac Sulfide],1.03
8,CC(C)N(CCC(=O)c1ccc2ccccc2c1)Cc1ccccc1,0.985 and 0.972
9,CC(C)(C)C#Cc1cc(N(C(=O)[C@H]2CC[C@H](C)CC2)[C@H]2CC[C@H](O)CC2)c(C(=O)O)s1,1
10,CCOC(=O)c1ccc(C#Cc2ccc3c(c2)C(C)(C)CCS3)nc1 [Tazarotene (Avage)],1.08
11,CCC(C)(C)c1ccc(CC(C)CN2C[C@@H](C)O[C@@H](C)C2)cc1 (stereo partly drawn) [Amorolfine HCl],0.962
12,CC[C@]12CCCN3CCc4c(n(c5ccccc45)[C@@](O)(C(=O)OC)C1)[C@@H]32 [Vincamine],0.863
13,CC(=C(CCO)SSCC1CCCO1)N(C=O)Cc1cnc(C)nc1N (stereo in doubt) [Fursultiamine Hydrochloride],0.986
14,CCC(C)(CN(C)C)OC(=O)c1ccccc1 (stereo not drawn) [Amyleine hydrochloride],0.874
15,Cn1c(=O)c2c(ncn2CC(O)CO)n(C)c1=O (stereo not drawn) [Diprophylline],0.845
16,CCCc1nc(C(C)(C)O)c(C(=O)OCc2oc(=O)oc2C)n1Cc1ccc(-c2ccccc2-c2nnn[nH]2)cc1 [Olmesartan medoxomil (Benicar)],1.1
17,NC(=O)c1cccnc1 [Nicotinamide],1.03 ± 0.078
18,CNC1(C)C2CCC(C2)C1(C)C (stereo not drawn) [Mecamylamine hydrochloride],0.976
19,Cc1c(Cn2c(C)nc3c(C(=O)O)cc(N4CCOCC4)cc32)cccc1C(F)(F)F,1.02 ± 0.044
20,COc1ccc(CNCc2cccc3ccccc23)cc1,0.97
21,NC(=O)[C@@H](CCC(F)(F)F)N(Cc1ccc(-c2ncon2)cc1F)S(=O)(=O)c1ccc(Cl)cc1,1.09
22,CC1=C(C(=O)O)N2C(=O)[C@@H](NC(=O)[C@H](N)c3ccc(O)cc3)[C@H]2SC1 [Cefadroxil],1.03
23,C[C@@]1(O)[C@H](O)[C@@H](CO)O[C@H]1n1cnc2c(NC3CCCC3)nc(Cl)nc21,1.01
24,CC(C)c1onc(-c2c(Cl)cccc2Cl)c1COc1ccc(/C=C/c2cccc(C(=O)O)c2)c(Cl)c1,1.08 and 1.07
25,C=CCN1CCCC1CNC(=O)c1cc2nn[nH]c2cc1OC (stereo not drawn) [Alizapride HCl],0.938
26,N[C@@H](CSS(=O)(=O)O)C(=O)O [S-Sulfo-L-cysteine sodium salt],1.14

row,Structure (SMILES),surface PD-L1 immunofluorescence intensity
1,CC(C)(Oc1ccc(C2CC2(Cl)Cl)cc1)C(=O)O (stereo not drawn) [Ciprofibrate],1.02
2,CN(CCOc1ccc(-c2ccc3c(c2)OCO3)cc1C(C)(C)C)CC(=O)O,1.01
3,N[C@@H](C(=O)O)c1ccc(O)c(C(=O)O)c1 [(R)-3-Carboxy-4-hydroxyphenylglycine],1.03
4,CCn1cc(C(=O)O)c(=O)c2cc(F)c(N3CCNCC3)cc21 [Norfloxacin],1.01
5,c1ccc(N2CCN(CCCOc3ccc4c(c3)OCO4)CC2)cc1 [BP 554 maleate],1.08
6,Cc1cc(Cc2cc(C)cc(C(C)(C)C)c2O)c(O)c(C(C)(C)C)c1,0.909
7,Cc1nc2c(OCc3ccccc3)cccn2c1CC#N,1.04
8,CCOC(=O)C1=C(C)NC(C)=C(C(=O)OC)C1c1cccc([N+](=O)[O-])c1 (stereo not drawn) [Nitrendipine],1.03 ± 0.042
9,CC(CN1c2ccccc2Sc2ccccc21)N(C)C (stereo not drawn) [Promethazine hydrochloride],1.04
10,CCOc1cc(N2CCC(O)CC2)ccc1Nc1ncc2c(n1)N(C)c1ccccc1C(=O)N2C,0.913
11,CN(C)[C@@H]1CCc2[nH]c3ccc(NC(=O)c4ccc(F)cc4)cc3c2C1,1.02
12,COc1cc(C[C@H]2C(=O)OC[C@@H]2Cc2ccc(OC)c(OC)c2)ccc1O [Arctigenin],1.05
13,NS(=O)(=O)c1cc2c(cc1C(F)(F)F)NC(Cc1ccccc1)NS2(=O)=O (stereo not drawn) [Bendroflumethiazide],0.97
14,O=C(c1ccc(OCCN2CCCCC2)cc1)c1c(-c2ccc(O)cc2)sc2cc(O)ccc12 [Raloxifene hydrochloride],1.09
15,CNC(=O)c1ccc(N2C(=S)N(c3cnc(C#N)c(C(F)(F)F)c3)C(=O)C23CCC3)cc1F,1.02
16,COc1cc(N)c(Cl)cc1C(=O)NC1CCN(Cc2ccccc2)CC1 [Clebopride maleate],0.912
17,CNC(=O)CN1CCC(Oc2cc3c(Nc4cccc(Cl)c4F)ncnc3cc2OC)CC1,0.995
18,CCN1CCCC1CNC(=O)c1cc(S(=O)(=O)CC)c(N)cc1OC (stereo not drawn) [Amisulpride],0.906 ± 0.058
19,Nc1nc(N)nc(-c2cc(Cl)ccc2Cl)n1 [Irsogladine maleate],0.963 ± 0.059
20,CCCS(=O)(=O)Nc1ccc(F)c(C(=O)c2c[nH]c3ncc(Cl)cc23)c1F,1.14
21,CC1CCc2cc(F)cc3c(=O)c(C(=O)O)cn1c23 (stereo not drawn) [Flumequine],0.914
22,O=C(NCC1CCCCN1)c1cc(OCC(F)(F)F)ccc1OCC(F)(F)F (stereo not drawn) [Flecainide acetate],1.07 ± 0.041
23,C[C@@H](O)[C@H]1C(=O)N2C(C(=O)OCOC(=O)C(C)(C)C)=C(SC3CN(C4=NCCS4)C3)[C@H](C)[C@H]12 [Tebipenem pivoxil (L-084)],1.02
24,CCCCOc1ccc(OCCCN2CCOCC2)cc1 [Pramoxine hydrochloride],1.02
25,CC(C)[C@H]1CC[C@H](C(=O)N[C@H](Cc2ccccc2)C(=O)O)CC1 [Nateglinide (Starlix)],0.918
26,COc1c(O)cc2c(c1O)[C@@H]1O[C@H](CO)[C@@H](O)[C@H](O)[C@H]1OC2=O [Bergenin (Cuscutin)],1.06
